PubChem BioAssay AID493246 | Drosophila RNAi Screening Center | 2011

- Aim: 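Genes fly cells need to grow and stay alive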 (primary screen)
- System: Drosophila Kc and S2R+ cells
- Knock-down reagent: long dsRNA against Drosophila genes
- Measurement: 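Cell number per well after knock-down, printed as raw plate values; calls were based on per-plate z-scores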
- Direction: Kc cell number and S2R+ cell number: higher = more cells remaining
- Hit rule: 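Active when the per-plate z-score of cell number is 3 or more in the direction of fewer cells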
The deposit covers about 21,000 reagents; shown is a random part of those that have a named target and a result. Of all reagents, 429 (2%) got an active call. 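Values are raw and not normalised between plates; calls rest on per-plate z-scores that were not deposited.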 A plus sign joins genes that one reagent is predicted to hit. The record does not give: the amount of reagent, the time to read-out.

target	amplicon	Kc cell number, rep 1	Kc cell number, rep 2	S2R+ cell number, rep 1	S2R+ cell number, rep 2	activity call
CG30383	DRSC05062	1.37e6	1.43e6	9.53e5	1.06e6	inactive
mRpL12	DRSC10467	1.25e6	1.35e6	1.10e6	1.07e6	inactive
DIP-eta	DRSC02342	1.57e6	1.46e6	1.17e6	1.31e6	inactive
nonC	DRSC18366	5.65e5		8.27e5		inactive
nonC	DRSC18367	1.39e6	1.39e6	1.00e6	1.06e6	inactive
CG16700	DRSC19755	1.44e6	1.45e6	1.15e6	1.27e6	inactive
Taf8	DRSC20363	1.65e6	1.65e6	1.09e6	1.18e6	inactive
Pu	DRSC04645	1.30e6	1.37e6	9.74e5	1.10e6	inactive
kek4	DRSC03220	1.39e6	1.38e6	1.12e6	1.23e6	inactive
mav	DRSC17149	1.58e6	1.58e6	1.04e6	1.20e6	inactive
CG32182	DRSC09508	1.39e6	1.50e6	1.15e6	1.30e6	inactive
Hsdl2	DRSC15839	5.29e5		8.01e5		inactive
trem	DRSC15575	1.38e6	1.36e6	1.10e6	1.14e6	inactive
Mppe	DRSC07296	1.31e6	1.31e6	1.14e6	1.18e6	inactive
CG15459	DRSC20530	1.33e6	1.38e6	9.64e5	1.11e6	inactive
Ser8	DRSC06891	1.40e6	1.46e6	1.21e6	1.32e6	inactive
Cad74A	DRSC10636	1.56e6	1.44e6	1.27e6	1.39e6	inactive
subdued	DRSC15137	1.45e6	1.57e6	1.11e6	1.17e6	inactive
Mst33A	DRSC03371	1.68e6	1.73e6	1.33e6	1.55e6	inactive
ergic53	DRSC11389	1.45e6	1.39e6	1.09e6	1.20e6	inactive
CG1946	DRSC06804	1.65e6	1.73e6	1.34e6	1.57e6	inactive
CG4709	DRSC02772	1.32e6	1.42e6	1.08e6	1.21e6	inactive
CG10747	DRSC02104	1.57e6	1.60e6	1.19e6	2.96e5	inactive
CG11629	DRSC03695	1.51e6	1.60e6	1.26e6	2.97e5	inactive
CG33281	DRSC00421	1.52e6	1.46e6	1.11e6	1.18e6	inactive
snRNP-U1-70K	DRSC03612	1.56e6	1.79e6	1.05e6	1.20e6	inactive
svr	DRSC17293	1.11e6	1.27e6	1.06e6	1.08e6	inactive
svr	DRSC18841	1.62e6	1.58e6	1.02e6	1.10e6	inactive
RhoGAP1A	DRSC20649	1.44e6	1.49e6	1.02e6	1.12e6	inactive
RhoGAP1A	DRSC20651	1.43e6	1.50e6	9.74e5	1.12e6	inactive
Tbcb	DRSC06067	1.41e6	1.39e6	1.07e6	1.10e6	inactive
Tektin-A	DRSC01921	1.30e6	1.34e6	1.25e6	1.30e6	inactive
CG14634	DRSC17944	1.56e6	1.49e6	1.08e6	1.17e6	inactive
CG5866	DRSC15900	1.25e6	1.50e6	1.06e6	1.17e6	inactive
CG3123	DRSC00570	1.65e6	1.60e6	1.06e6	1.24e6	inactive
Snoo	DRSC01008	1.45e6	1.51e6	1.03e6	1.10e6	inactive
Snoo	DRSC03004	1.28e6	1.35e6	6.41e5	7.71e5	inactive
Snoo	DRSC03035	1.56e6	1.63e6	1.21e6	1.30e6	inactive
RpL22	DRSC18707	8.23e5	8.13e5	5.33e5	6.71e5	active
Nf-YB	DRSC02057	1.52e6	1.66e6	1.40e6	3.83e5	inactive
CG10910	DRSC06007	1.33e6	1.38e6	1.09e6	1.22e6	inactive
CG4318	DRSC19887	1.59e6	1.55e6	1.07e6	1.17e6	inactive
CG11158	DRSC19389	1.65e6	1.46e6	1.16e6	1.24e6	inactive
Nrg	DRSC17573	1.20e6	1.40e6	1.09e6	1.14e6	inactive
Nrg	DRSC18688	5.60e5		8.59e5		inactive
CG6569	DRSC16067	1.31e6	1.30e6	1.04e6	1.09e6	inactive
CG9259	DRSC03174	1.60e6	1.71e6	1.31e6	4.68e5	inactive
CG31019	DRSC13994	1.51e6	1.61e6	1.11e6	1.14e6	inactive
CG12209	DRSC06119	1.51e6	1.52e6	1.25e6	1.29e6	inactive
Best2	DRSC09712	1.29e6	1.40e6	1.10e6	1.17e6	inactive
CG43736 + CG33692 (retired record)	DRSC18370	1.49e6	1.43e6	9.36e5	1.01e6	inactive
CG43736 + CG33692 (retired record)	DRSC18371	1.66e6	1.64e6	1.09e6	1.21e6	inactive
Hsp60D	DRSC02543	1.61e6	1.81e6	1.12e6	1.12e6	inactive
CG14321	DRSC14800	1.45e6	1.44e6	9.69e5	1.05e6	inactive
Rac1	DRSC08688	1.43e6	1.27e6	1.08e6	1.26e6	inactive
Las	DRSC11772	1.33e6	1.42e6	1.26e6	1.26e6	inactive
Mct1	DRSC18681	1.54e6	1.54e6	1.13e6	1.25e6	inactive
AstC	DRSC02403	1.50e6	1.61e6	1.18e6	1.31e6	inactive
Ets97D	DRSC16665	1.40e6	1.48e6	9.62e5	1.09e6	inactive
